Measured values: PubChem BioAssay AID1671190 (National Center for Advancing Translational Sciences (NCATS), 2021)
Hit rate of the full screen: of about 580,000 compounds, about 6,100 (1.1%) were called active. This list was built around the results that the source calls inconclusive (neither active nor inactive); the mix of calls is not that of the screen. Calls come from the whole dose curve; as a rule, active = well fitted inhibition curve with a large enough effect; inconclusive = small, poorly fitted or top-dose-only effect, or another doubt; inactive = no such curve, though single readings can be large or run the other way. Potencies beside an inconclusive call are fits to weak or partial responses and may not hold up.

Amino acid sequences for entries named in this document (tags omitted). A change or cut given only in a name is not applied to a line headed by its entry.
UniProt P18054: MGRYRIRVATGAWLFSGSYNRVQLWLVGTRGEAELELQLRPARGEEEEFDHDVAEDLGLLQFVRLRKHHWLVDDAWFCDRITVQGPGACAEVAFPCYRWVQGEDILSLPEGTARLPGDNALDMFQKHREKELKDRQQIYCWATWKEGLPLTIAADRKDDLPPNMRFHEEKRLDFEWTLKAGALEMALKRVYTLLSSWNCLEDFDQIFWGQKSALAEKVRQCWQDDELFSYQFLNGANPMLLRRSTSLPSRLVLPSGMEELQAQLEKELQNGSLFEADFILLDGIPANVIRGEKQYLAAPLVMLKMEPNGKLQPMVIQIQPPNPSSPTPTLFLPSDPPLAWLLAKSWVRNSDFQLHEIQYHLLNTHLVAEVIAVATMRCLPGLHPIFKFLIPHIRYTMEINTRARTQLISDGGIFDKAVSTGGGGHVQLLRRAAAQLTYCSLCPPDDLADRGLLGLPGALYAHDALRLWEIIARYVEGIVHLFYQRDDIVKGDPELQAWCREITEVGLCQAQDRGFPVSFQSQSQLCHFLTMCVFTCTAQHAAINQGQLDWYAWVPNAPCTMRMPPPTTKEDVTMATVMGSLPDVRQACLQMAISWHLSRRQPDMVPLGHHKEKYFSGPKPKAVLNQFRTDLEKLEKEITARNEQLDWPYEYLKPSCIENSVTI

target: Polyunsaturated fatty acid lipoxygenase ALOX12 (Homo sapiens) (UniProt P18054); assay: Primary qHTS assay for inhibitors of human arachidonate 12S-lipoxygenase (ALOX12): Round 2; details: purified 12hLO, xylenol orange hydroperoxide absorbance; activity change, negative = inhibition: at 108 µM (top of the series) unless noted
Outline: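 Purified human 12hLO at 150 nM in 25 mM Hepes, 0.01% Triton X-100, pH 7.0, preincubated 15 min at room temperature with compound. Reaction started with 40 uM arachidonic acid, 30 min at room temperature. Hydroperoxide measured by Fe-xylenol orange, 573/405 nm absorbance ratio.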
% is set by controls: 0 for no effect and ±100 for the full control effect; potency is the fitted concentration of half-maximal effect.

**Q.** With `CCC[C@H]1CN(C(=O)c2ccccc2Cc2ccc(C)cc2)C[C@@H]1N` as the compound, how does the “activity change, negative = inhibition” value read?
**A.** inactive: 32%

**Q.** For `O=C1NC(C(=O)O)=CC(c2cccc(Cl)c2Cl)N1` (configuration not stated), which Potency is on record?
**A.** inconclusive: 0.199 µM [inhibitor, full curve, poor fit]

**Q.** With `CCOc1ccc(-c2nc(CSc3nc4c(=O)[nH]cnc4n3C)c(C)o2)cc1OC` as the compound, how does the Potency read?
**A.** inconclusive: 35.5 µM [inhibitor, single point]

**Q.** For `COc1cc(NC(=O)C(NS(=O)(=O)c2ccc3c(c2)CCCC(=O)N3)C(C)C)cc(OC)c1` (configuration not stated), which “activity change, negative = inhibition” value is on record?
**A.** inactive: -23.6%

**Q.** How did the Potency turn out when `CC[C@H](C)[C@H](NC(=O)c1ccc(Cl)cc1)C(=O)OCC(=O)c1ccc2c(c1)NC(=O)CO2` was run?
**A.** inconclusive: 79.4 µM [inhibitor, partial curve, poor fit]

**Q.** Which Potency does the source give for `Cc1cc(=O)oc2cc(NC(=O)N(C)Cc3ccc(Br)cc3)ccc12` here?
**A.** inconclusive: 50.1 µM [inhibitor, partial curve, poor fit]

**Q.** Which “activity change, negative = inhibition” value does the source give for `CCCn1c(=N)n(CC(O)c2ccc(C)cc2)c2ccccc21` (configuration not stated) here?
**A.** inactive: 13.3%

**Q.** For `Cc1ccc(C(=O)N2CCC3(C2)C(=O)N(C)c2ccccc23)cc1` (configuration not stated), which “activity change, negative = inhibition” value is on record?
**A.** inactive: 41% [at 176 µM]

**Q.** With `Cc1ccc(C(=O)/C=C/c2cc(Br)cc(Br)c2O)o1` as the compound, how does the Potency read?
**A.** inconclusive: 35.5 µM [inhibitor, partial curve]

**Q.** `Cc1cc(=O)[nH]c(-n2ncc(C#N)c2N)n1` was tested. Which “activity change, negative = inhibition” value did it give?
**A.** inactive: 0%

**Q.** For `NC1=NC[C@H](c2ccccc2)N1CCc1cc(C(F)(F)F)cc(C(F)(F)F)c1`, which Potency is on record?
**A.** inconclusive: 39.8 µM [inhibitor, partial curve]

**Q.** With `O=c1c2cc(F)ccc2sn1-c1ccccc1` as the compound, how does the Potency read?
**A.** inconclusive: 35.5 µM [inhibitor, partial curve, poor fit]

**Q.** Which Potency does the source give for `CSCCC(NS(=O)(=O)c1ccc(Cl)cc1)C(=O)OCC(=O)c1c(C)[nH]c2ccccc12` (configuration not stated) here?
**A.** inconclusive: 89.1 µM [inhibitor, partial curve, poor fit]

**Q.** How did the Potency turn out when `CCCCN1C(=O)C(CC(=O)NC(c2ccccc2)c2ccccc2)CC(C(=O)N2CCOCC2)=C1C` (configuration not stated) was run?
**A.** inconclusive: 44.7 µM [inhibitor, partial curve, poor fit]

**Q.** `O=C1CC2CCCC(C1)N2C(=O)c1ccccc1` was tested. Which Potency did it give?
**A.** inconclusive: 35.5 µM [inhibitor, full curve, poor fit]

**Q.** For `COc1cccc(Nc2ncnc3sc(C)cc23)c1`, which Potency is on record?
**A.** inconclusive: 44.7 µM [inhibitor, partial curve, poor fit]

**Q.** Which Potency does the source give for `COc1ccc(C)c2sc(N(CCCN(C)C)C(=O)c3ccc(S(=O)(=O)N4CCc5ccccc5C4)cc3)nc12` here?
**A.** inconclusive: 56.2 µM [inhibitor, partial curve, poor fit]

**Q.** `C/C(=N\NC(=O)c1ccc2c(c1)OCO2)c1cccnc1` was tested. Which “activity change, negative = inhibition” value did it give?
**A.** inactive: -26.9%

**Q.** `CCOc1ccccc1-n1nnnc1SCc1nc2ccccc2[nH]1` was tested. Which “activity change, negative = inhibition” value did it give?
**A.** inactive: -5.09%

**Q.** How did the Potency turn out when `CS(=O)(=O)c1ccccc1C(=O)OCc1ccccc1F` was run?
**A.** inconclusive: 50.1 µM [inhibitor, partial curve, poor fit]

**Q.** Which Potency does the source give for `O=C1CC(C(=O)Nc2ccc(Br)cc2)c2ccc(F)cc2N1` (configuration not stated) here?
**A.** inconclusive: 28.2 µM [inhibitor, single point]

**Q.** With `Cc1ccc(CN2CC[C@@H]3CN(S(C)(=O)=O)[C@@H]3C2)c(C)c1` as the compound, how does the Potency read?
**A.** inconclusive: 56.2 µM [inhibitor, partial curve, poor fit]

**Q.** With `O=c1c2cc3ccccc3nc2ncn1CCc1ccc(Cl)cc1` as the compound, how does the Potency read?
**A.** inconclusive: 112 µM [inhibitor, single point]

**Q.** Which “activity change, negative = inhibition” value does the source give for `CN(C)c1ccc(C(C(=O)NCC2CCCO2)N(C(=O)c2snc(C(N)=O)c2N)c2ccccc2)cc1` (configuration not stated) here?
**A.** inactive: 5.66%

**Q.** How did the Potency turn out when `COc1ccc([C@H]2C[C@@H](n3cc(-c4ccc(F)cc4)nn3)[C@H](O)CN2CC2CCCCC2)cc1` was run?
**A.** inconclusive: 63.1 µM [inhibitor, partial curve, poor fit]

**Q.** For `CN1C(=O)CCCCC1C(=O)NCc1ccc(Cl)cc1` (configuration not stated), which “activity change, negative = inhibition” value is on record?
**A.** inactive: 11%

**Q.** For `CC1=C([N+](=O)[O-])C(c2ccc(O)c(O)c2)NC(=O)N1` (configuration not stated), which Potency is on record?
**A.** active: 28.2 µM

**Q.** How did the Potency turn out when `Cc1nnc(CCNC(=O)[C@H]2CNC[C@@H](C(=O)N3CCCC3)C2)s1` was run?
**A.** inconclusive: 3.98 µM [inhibitor, partial curve]

**Q.** For `O=C(CN1CCN(C(=O)c2ccc(OCc3cn4ccccc4n3)cc2)CC1)Nc1cccc(F)c1`, which “activity change, negative = inhibition” value is on record?
**A.** inactive: 4.14%

**Q.** `CCOC(=O)C1CCN(Cc2ccc(OC)cc2OC)CC1` was tested. Which Potency did it give?
**A.** inconclusive: 0.794 µM [inhibitor, full curve]

**Q.** `O=c1c2ccccc2sn1-c1nccs1` was tested. Which Potency did it give?
**A.** active: 1.58 µM

**Q.** How did the Potency turn out when `O=C(/C=C/[C@H]1O[C@@H](n2ccc(=O)[nH]c2=O)[C@H](O)[C@@H]1O)NCc1ccc2c(c1)OCO2` was run?
**A.** inconclusive: 8.91 µM [inhibitor, partial curve, poor fit]

**Q.** For `CC(=O)Nc1ccc(NC(=O)c2cccc(N(C)C)c2)cc1`, which “activity change, negative = inhibition” value is on record?
**A.** inactive: 7.71%

**Q.** `COC(=O)CSc1nnc(CNc2ccc(Cl)cc2)n1Cc1ccccc1` was tested. Which “activity change, negative = inhibition” value did it give?
**A.** inactive: 20.7%

**Q.** Which “activity change, negative = inhibition” value does the source give for `COc1ccc(/C=C\C(=O)Nc2cccc3cccnc23)cc1OC` here?
**A.** inactive: -6.32%

**Q.** With `CCn1c(NC(C)=O)nc2ccccc21` as the compound, how does the Potency read?
**A.** inconclusive: 2.51 µM [inhibitor, partial curve, poor fit]

**Q.** For `Cc1c(Cc2ccc3c(c2)OCO3)sc(NC(=O)c2ccccc2)c1C(N)=O`, which Potency is on record?
**A.** inconclusive: 56.2 µM [inhibitor, partial curve, poor fit]

**Q.** Which Potency does the source give for `CCOC(=O)c1ccc(CNCc2ccc(C)cc2)cc1` here?
**A.** inconclusive: 39.8 µM [inhibitor, partial curve, poor fit]

**Q.** Which “activity change, negative = inhibition” value does the source give for `O=C(O)CSc1nnc(-c2ccncc2)n1-c1ccc(Cl)cc1` here?
**A.** inactive: 0%

**Q.** With `CCOC(=O)c1[nH]ncc1CN1CCOC(Cc2ccc(OC)cc2)C1` (configuration not stated) as the compound, how does the “activity change, negative = inhibition” value read?
**A.** inactive: 42.7%

**Q.** `NS(=O)(=O)c1ccc(CCNC(=O)c2ccc3nc4ccc(Cl)cc4c(=O)n3c2)cc1` was tested. Which Potency did it give?
**A.** inconclusive: 44.7 µM [inhibitor, partial curve]

**Q.** For `Cc1ccc2c(c1)C(C[C@H]1CN(C(=O)C3CCCC3)CC[C@H]1CC(=O)O)=NCC2`, which Potency is on record?
**A.** inconclusive: 11.2 µM [inhibitor, full curve]

**Q.** How did the Potency turn out when `NNC(=S)Nc1cccc(Cl)c1` was run?
**A.** inconclusive: 112 µM [inhibitor, single point]

**Q.** For `C=CCNC(=S)N1CCN(c2ccc([N+](=O)[O-])cc2)CC1`, which Potency is on record?
**A.** inconclusive: 56.2 µM [inhibitor, partial curve, poor fit]

**Q.** How did the “activity change, negative = inhibition” value turn out when `O=C(O)/C=C/c1cccnc1` was run?
**A.** inactive: -27.9%

**Q.** How did the Potency turn out when `O=C(COC(=O)COc1ccccc1[N+](=O)[O-])NCc1ccc2c(c1)OCO2` was run?
**A.** inconclusive: 89.1 µM [inhibitor, single point]

**Q.** How did the Potency turn out when `CCOC(=O)c1ccc(NC(=S)NCc2ccccc2)cc1` was run?
**A.** inconclusive: 50.1 µM [inhibitor, partial curve, poor fit]

**Q.** With `COc1ccc(OC)c(CNc2ncnc3c2nc2n3CCCC2)c1` as the compound, how does the “activity change, negative = inhibition” value read?
**A.** inactive: -13.1%

**Q.** With `O=C(CNc1ccc(Br)cc1)c1ccc(O)cc1` as the compound, how does the Potency read?
**A.** inconclusive: 44.7 µM [inhibitor, partial curve, poor fit]

**Q.** How did the “activity change, negative = inhibition” value turn out when `Cc1cc(SCC(=O)Nc2ccc(O)cc2)n2ncc(-c3ccccc3)c2n1` was run?
**A.** inactive: -20.8%

**Q.** For `CCc1c(C)nc(SCc2nc(-c3ccccc3C)no2)[nH]c1=O`, which Potency is on record?
**A.** inconclusive: 50.1 µM [inhibitor, partial curve, poor fit]

**Q.** `CC[C@]1(O)C[C@@H]2CN(CCc3c([nH]c4ccccc34)[C@](C(=O)OC)(c3cc4c(cc3OC)N(C)[C@H]3[C@](O)(C(=O)OC)[C@@H](C(=O)OC)[C@@]5(CC)C=CCN6CC[C@@]43[C@@H]65)C2)C1` was tested. Which Potency did it give?
**A.** inconclusive: 39.8 µM [inhibitor, partial curve, poor fit]

**Q.** How did the Potency turn out when `CC1C(=O)N(Cc2ccccc2F)c2ccccc2N1C(=O)c1c(F)cccc1F` (configuration not stated) was run?
**A.** inconclusive: 112 µM [inhibitor, partial curve, poor fit]

**Q.** `CCCCCC(=O)N/N=C/c1ccccc1[N+](=O)[O-]` was tested. Which “activity change, negative = inhibition” value did it give?
**A.** inactive: 17.1%

**Q.** Which “activity change, negative = inhibition” value does the source give for `O=C(CCc1ncc(-c2c(F)cccc2F)o1)N1CCC(OCc2ccccc2)CC1` here?
**A.** inactive: -5.19%

**Q.** `COc1ccc(-c2oc3cccnc3c2C#CC2(O)CCCCC2)cc1` was tested. Which Potency did it give?
**A.** inconclusive: 44.7 µM [inhibitor, partial curve, poor fit]

**Q.** Which Potency does the source give for `COc1ccc(N(CC(=O)NC2CCCCC2)C(=O)CNC(=O)c2ccco2)cc1` here?
**A.** inconclusive: 141 µM [inhibitor, single point]

**Q.** `COC(=O)c1cc(O)cc(OC)c1C(=O)c1c(O)cc(C)cc1O` was tested. Which “activity change, negative = inhibition” value did it give?
**A.** inactive: 26.3%

**Q.** How did the Potency turn out when `Cc1cccc(NC(=O)c2sc(-n3nc(C)c(Cc4ccc5c(c4)OCO5)c3C)nc2C)c1C` was run?
**A.** inconclusive: 89.1 µM [inhibitor, partial curve, poor fit]

**Q.** Which Potency does the source give for `O=C(C[n+]1ccc(C(=O)c2ccccc2)cc1)Nc1ccccc1OC(F)F` here?
**A.** inconclusive: 56.2 µM [inhibitor, partial curve, poor fit]

**Q.** With `O=C(CN1CCN(C(=O)c2ccco2)CC1)NCc1ccc(Cl)cc1` as the compound, how does the Potency read?
**A.** inconclusive: 39.8 µM [inhibitor, partial curve, poor fit]

**Q.** Which “activity change, negative = inhibition” value does the source give for `CCOc1ccccc1Oc1coc2cc(OC(=O)c3ccccc3F)ccc2c1=O` here?
**A.** inactive: -1.82%

**Q.** With `CNCCN1C(=O)CC[C@H]2CN(C(=O)c3cnc4nc(C)[nH]n4c3=O)CC[C@H]21` as the compound, how does the Potency read?
**A.** inconclusive: 28.2 µM [inhibitor, single point]

**Q.** `COc1cccc(NC(=O)N2CCN3CCCCC3C2)c1` (configuration not stated) was tested. Which Potency did it give?
**A.** inconclusive: 112 µM [inhibitor, partial curve, poor fit]

**Q.** How did the “activity change, negative = inhibition” value turn out when `CCn1cnc2cc(NCc3nc4ccccc4n3C)ccc21` was run?
**A.** inactive: 1.17%

**Q.** `COC(=O)c1c(NC(=O)C2C3CCC(O3)C2C(=O)O)sc2c1CCCCCC2` (configuration not stated) was tested. Which Potency did it give?
**A.** inconclusive: 112 µM [inhibitor, partial curve, poor fit]

**Q.** With `CCCCc1nc(NCCNC(=O)c2ccccc2)c(C#N)c2c1CSC(C)(C)C2` as the compound, how does the “activity change, negative = inhibition” value read?
**A.** inactive: 13.6%
